We go through seven compounds from PubChem BioAssay AID248 (DTP/NCI, 2004).

Each structure is given as a SMILES string. The list shows only some results of the screen, not a fair sample: it is rich in T/C values a quarter to a half above the control, in often repeated tests (any T/C) and in doses without a T/C. Other doses and runs of a compound stand elsewhere. T/C: endpoint of the treated group in % of that of the vehicle group. Some entries give survivors of the animals treated and no T/C: the source files T/C as zero there, which appears to mark a toxic dose or a test without result, not a measured value. Some survivor counts are full or nearly so, which does not show that the dose was tolerated: the source hardly ever lists a survival T/C far under the control, and the zero likely stands for such cases as well. Counts of survivors are from the toxicity check (mostly the fifth day) where no day follows; animals may have died later. Schedule codes are those of the source, taken here to give the interval after Q, in days (D) or hours (H), and the number of doses after X.

The subject of this experiment is L1210 leukemia ip in BDF1 mice, survival T/C. Put plainly: NCI In Vivo Anticancer Drug Screen. Data for tumor model L1210 Leukemia (intraperitoneal) in B6D2F1 (BDF1) mice. The conditions noted are these: T/C endpoint: mean survival time, higher T/C = longer survival.
Setting [1] is: dose: 400.0 mg/kg/injection, schedule: Q01DX001 (ip), vehicle: saline.

In the case of `CC(C)(C)CC(C)(C)NCC(O)COc1ccc(C(C)(C)c2ccc(OCC(O)CNC(C)(C)CC(C)(C)C)cc2)cc1` (stereo not drawn), the survivor count is, setting by setting: (dose: 25.0 mg/kg/injection, schedule: Q01DX001 (ip), vehicle: saline sonified) 6 of 6; (dose: 50.0 mg/kg/injection, schedule: Q04DX003 (ip), vehicle: other) 0 of 6. Turning to `Cc1ccc(Cl)cc1NC(=O)Oc1cc(C)c(Cl)c(C)c1`, the survivor count (dose: 400.0 mg/kg/injection, schedule: Q01DX009 (ip), vehicle: Klucel (hydroxypropylcellulose) (HPC)) is on record as 2 of 6. For `O=C1CCCC2C1C1(O)CCC2(O)c2cccc(O)c21` (stereo not drawn), the survivor count (dose: 200.0 mg/kg/injection, schedule: Q01DX009 (ip), vehicle: saline) is given as 0 of 6 and the survivor count under setting [1] was 0 of 6. In the case of `CCCCCCCCCCCCCCCN(CCCl)CCCl`, the survivor count (dose: 400.0 mg/kg/injection, schedule: Q01DX001 (ip), vehicle: carboxymethylcellulose (CMC)) is listed as 0 of 4. Take `Cc1onc(-c2ccccc2Cl)c1C(=O)NC(=S)NC1CC(C)CC(C)(C)C1` (stereo not drawn): the survivor count reads like this: (dose: 100.0 mg/kg/injection, schedule: Q04DX002 (ip), vehicle: saline with Tween-80) 3 of 3; (dose: 200.0 mg/kg/injection, schedule: Q04DX002 (ip), vehicle: saline with Tween-80) 3 of 3; (dose: 400.0 mg/kg/injection, schedule: Q04DX002 (ip), vehicle: saline with Tween-80) 3 of 3. As to `C1CCC2(CC1)CN2`, the survivor count (dose: 200.0 mg/kg/injection, schedule: Q01DX001 (ip), vehicle: saline) was 1 of 6 and the survivor count under setting [1] is on record as 0 of 6. Take `NC(=O)OCc1c(O)c2c(c(O)c1COC(N)=O)C(=O)C=CC2=O`: the survivor count (dose: 200.0 mg/kg/injection, schedule: Q01DX009 (ip), vehicle: water) was 2 of 6 and the survivor count (dose: 400.0 mg/kg/injection, schedule: Q01DX009 (ip), vehicle: water) is recorded as 0 of 6.
